The record followed here is PubChem BioAssay AID1487 (National Center for Advancing Translational Sciences (NCATS), 2009).

SMILES strings stand for the structures. Several values for one entry are separate records, joined by “and”; a condition that tells them apart may be missing. Identical values can stand only once. The list shows a part of the results. The main result of the screen is listed elsewhere. These columns were measured beside it and carry no call. The list favours compounds with an active or inconclusive main result. The note in brackets gives the kind of curve behind each potency; many fits are weak.

A short description of the assay: qHTS Assay for Modulators of Lamin A Splicing. The note with it: HeLa LMNA splicing GFP/RFP minigene ratio, 48 h. The method in brief: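 S3 HeLa stable clones carrying a lamin A-EGFP splicing minigene plus DsRed2 were seeded at 600 cells/well in Opti-MEM with 2% FBS, pin-dosed and incubated 48 h at 37°C. Acumen cytometry (488 nm) gave the GFP/RFP total-intensity ratio.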
(In qHTS, concentration-response curves come from the screen itself.)

Setting [1] is: measured here: GFP splicing reporter channel.
Setting [2] is: measured here: RFP viability control channel.

Usually AC50 stands for the concentration at which the activity in the assay is half-maximal. Take `CCc1ccc(-n2c(SCc3ccccc3C)nc3[nH]ncc3c2=O)cc1`: the AC50 runs as follows: under setting [1], 25.1 µM [falling, single point]; under setting [2], 35.5 µM [falling, single point]. `O=C(CN1CCC(C(=O)c2ccc(F)cc2)CC1)Nc1ccccc1`: the AC50 by setting is: under setting [1], 28.2 µM [rising, single point]; under setting [2], 25.1 µM [rising, partial curve]. For the compound `Cc1ccccc1[C@@H]1C(C#N)=C(N)S[C@H]1C(=O)c1ccccc1`, the AC50 under setting [2] is 35.5 µM [rising, single point]. Regarding `Cc1ccccc1N1CCN(C(=S)c2ccccc2)CC1`, the AC50 under setting [1] was 35.5 µM [rising, single point]. On to `CCN(CC)C(=O)c1ccc(S(=O)(=O)NCc2cccnc2)cc1`, for which the AC50 was 17.8 µM [rising, partial curve, poor fit] under setting [1] and 14.1 µM [rising, partial curve] under setting [2]. For the compound `CCc1ccc(-c2nn(CC(=O)NCc3ccccc3)c3c2cnc2ccc(C)cc23)cc1`, the AC50 is, setting by setting: under setting [1], 0.0158 µM [falling, full curve]; under setting [2], 0.0112 µM [falling, full curve, poor fit]. As for `COc1ccc2[nH]c(C)c(CCNC(=S)Nc3ccccc3C)c2c1`, the AC50 is 14.1 µM [rising, single point] under setting [1] and 25.1 µM [rising, single point] under setting [2]. Turning to `O=C(Cn1c(=O)n(Cc2ccco2)c(=O)c2ccccc21)Nc1cccc(Cl)c1`, the concentration at half-maximal activity (AC50) under setting [2] is 14.1 µM [rising, partial curve, poor fit]. Turning to `O=C(CCS(=O)(=O)c1ccc(Cl)cc1)N1CCN(c2ccccc2F)CC1`, the half-maximal activity concentration (AC50) under setting [1] was 12.6 µM [rising, partial curve, poor fit] and the AC50 under setting [2] is 14.1 µM [rising, partial curve]. Turning to `O=c1c(-c2ccc3c(c2)OCCO3)c(C(F)(F)F)oc2cc(O)cc(O)c12`, under setting [2], the half-maximal activity concentration (AC50) is 35.5 µM [rising, single point]. As for `CC(C)Cn1c(N)c(C(=O)CCl)c(=O)n(C)c1=O`, the AC50 is, setting by setting: under setting [1], 11.2 µM [rising, partial curve]; under setting [2], 15.8 µM [rising, partial curve]. As for `C=CCN=c1scc(-c2ccccc2)n1/N=C/c1ccccn1`, the concentration at half-maximal activity (AC50) under setting [2] was 2 µM [rising, full curve]. Turning to `CCCCNC(=O)/C(C#N)=C/c1ccc(-c2ccc(S(=O)(=O)N3CCOCC3)cc2)o1`, the AC50 was 7.94 µM [rising, partial curve] under setting [1] and 11.2 µM [rising, single point] under setting [2]. For `O=C(Cn1cnc2c(cnn2-c2ccc(F)cc2)c1=O)N1CCN(c2ccccc2F)CC1`, under setting [2], the AC50 is 2.51 µM [rising, partial curve, poor fit]. Take `CCOc1ccc(C(=O)Nc2ccccc2OCc2cc(=O)n3ccccc3n2)cc1`: the half-maximal activity concentration (AC50) under setting [1] is 0.631 µM [falling, full curve, poor fit]. As for `Cc1cc(C(=O)Nc2cccc(F)c2)c2c(C)nn(-c3cccc(Cl)c3C)c2n1`, the AC50 was 0.00447 µM [falling, full curve, poor fit] under setting [1] and 25.1 µM [falling, single point] under setting [2]. For `Cn1c(-[n+]2c(-c3ccccc3)cc(-c3ccccc3)cc2-c2ccccc2)nc2c([N+](=O)[O-])cccc21`, the concentration at half-maximal activity (AC50) runs as follows: under setting [1], 11.2 µM [rising, partial curve]; under setting [2], 15.8 µM [rising, partial curve]. In the case of `CCn1c(CCNC(=O)c2ccc(Cl)c(Cl)c2)nnc1SCCOc1ccc(OC)cc1`, the AC50 under setting [1] was 7.94 µM [rising, partial curve] and the AC50 under setting [2] is 10 µM [rising, partial curve].

As to `CCc1ccc(-c2cn3c(n2)SCC3)cc1`, under setting [2], the concentration at half-maximal activity (AC50) was 14.1 µM [falling, single point]. For `CCN(CC)S(=O)(=O)c1ccc(NC(=S)NC(=O)CC(C)C)cc1`, under setting [1], the concentration at half-maximal activity (AC50) is 35.5 µM [rising, single point]. Turning to `NC(=O)CSc1nc2scc(-c3ccc(Cl)cc3)c2c(=O)n1Cc1ccccc1`, the AC50 under setting [2] was 20 µM [rising, single point]. On to `CCCCC(O)(CCCC)C(=O)NN(C(=O)CCl)c1ccccc1`, for which the concentration at half-maximal activity (AC50) under setting [1] was 35.5 µM [falling, single point].

With `CCOC(=O)N1CCC(=C2c3ccc(Cl)cc3CCc3cccnc32)CC1`, the concentration at half-maximal activity (AC50) by setting is: under setting [1], 12.6 µM [falling, partial curve] and 35.5 µM [falling, single point] and 35.5 µM [rising, single point]; under setting [2], 11.2 µM [rising, partial curve, poor fit] and 22.4 µM [falling, single point] and 31.6 µM [rising, single point]. In the case of `CC(C)Oc1cccc(C(=O)NC(=S)Nc2ccccc2)c1`, the AC50 reads like this: under setting [1], 11.2 µM [rising, partial curve, poor fit]; under setting [2], 35.5 µM [rising, single point]. Regarding `O=C(COC(=O)c1ccccc1C(=O)N1CCN(c2ccccc2)CC1)Nc1ccc(F)cc1`, under setting [2], the AC50 is 11.2 µM [rising, partial curve]. On to `Cc1ccc(-c2c[n+](CC(=O)Nc3nc(-c4ccc(F)cc4)cs3)c3n2CCC3)cc1`, for which the concentration at half-maximal activity (AC50) is 10 µM [rising, partial curve, poor fit] under setting [1] and 12.6 µM [rising, partial curve] under setting [2]. As for `Cc1nc2ncnn2c(N2CCN(C(c3ccccc3)c3ccccc3)CC2)c1C`, the concentration at half-maximal activity (AC50) under setting [1] is 12.6 µM [rising, single point] and the AC50 under setting [2] is 31.6 µM [rising, single point]. As for `CCN(CC)CC(=O)Nc1cc(N(C)C)nc2ccccc12`, the half-maximal activity concentration (AC50) under setting [1] is 3.98 µM [rising, single point]. On to `CCNC(=S)NNC(=O)c1ccccn1`, for which the half-maximal activity concentration (AC50) is, setting by setting: under setting [1], 15.8 µM [rising, single point]; under setting [2], 14.1 µM [rising, single point]. Take `CCCS(=O)(=O)N1CC(=O)N(c2ccccc2C)C(C)(C(=O)NC2CCCCC2)C1` (centres undefined): under setting [1], the AC50 was 10 µM [rising, single point]. Consider `CCOc1ccc(C(=O)/C=C/c2ccc(OC)c(OC)c2)cc1`, for which, under setting [2], the half-maximal activity concentration (AC50) was 15.8 µM [falling, single point]. For `Cc1ccc(C(=O)Nc2nccs2)cc1S(=O)(=O)N1CCCCC1`, the concentration at half-maximal activity (AC50) under setting [1] was 6.31 µM [rising, partial curve, poor fit] and the AC50 under setting [2] was 11.2 µM [rising, partial curve].
